# Results of single-concentration screens

Mtb glucose medium: 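Phenotypic screen: M. tuberculosis growth, glucose 7H9 medium, 3 days; the read-out is not stated. Compounds at 50 µM. Direction is inferred from retests: higher values go with more growth inhibition. About 69,000 compounds were tested under these conditions; 1.1% (about 760) showed 50% or more at least once.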
Mtb cholesterol medium: 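Phenotypic screen: M. tuberculosis growth, cholesterol and DPPC medium, 4 days; the read-out is not stated. Compounds at 50 µM. The record gives no direction; compounds that gave an IC50 in retests scored well above the rest, so higher reads as more growth inhibition. Size under these conditions: about 69,000 compounds, about 370 of them at 50% or above in at least one test.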

Results are given as percent effect.
The controls that fix the scale are not given in the record; negative values are as filed.
Compounds were drawn at random from those tested, without regard to their results.
Two or more numbers in one place are separate tests of the same structure; such repeats can differ widely.

With CCSCc1cccc(NCc2cccnc2)c1 the screen gave Mtb glucose medium: 16.44%; Mtb cholesterol medium: 5.163%.
With Cc1nc(CN(C)c2cc(N3CCCC3CO)ncn2)cs1 (centres unmarked) the screen gave Mtb glucose medium: 2.446%; Mtb cholesterol medium: -6.843%.
With [H][C@@]12CN(S(C)(=O)=O)C[C@]1(C(=O)NC)CCC21CCN(S(C)(=O)=O)CC1 the screen gave Mtb glucose medium: -8.758%; Mtb cholesterol medium: -16.21%.
With Cc1nc(N2CCCC2)nc2c1CCN(Cc1ccoc1)CC2.O=C(O)C(F)(F)F the screen gave Mtb glucose medium: 76.26% & 65.22%; Mtb cholesterol medium: 74.21% & 75.25%.
With O=C(c1ccccn1)N1CCCC(c2cc(C(F)F)n3ncnc3n2)C1 (centres unmarked) the screen gave Mtb glucose medium: -10.1%; Mtb cholesterol medium: -4.639%.
With Cc1ccc(-c2cnnc(NCC3(N4CCOCC4)CCCC3)n2)o1 the screen gave Mtb glucose medium: -0.5404% & 10.32%; Mtb cholesterol medium: 8.515%.
With COc1ccc(OCc2nc(C(=O)N3CCCNC(=O)C3)co2)cc1 the screen gave Mtb glucose medium: -6.084%; Mtb cholesterol medium: 4.21%.
With CCOc1ccc(N2CCCN=C2NC(=O)c2cccc(Cl)c2)cc1 the screen gave Mtb glucose medium: -18.98%; Mtb cholesterol medium: -18.85%.
With OC(CNc1nc(C2CCCC2)nc2c1CCNCC2)C(F)(F)F (centres unmarked) the screen gave Mtb glucose medium: 25.61%; Mtb cholesterol medium: 9.258%.
With COC(C)(CNS(=O)(=O)c1cn(C)cn1)c1ccccc1F (centres unmarked) the screen gave Mtb glucose medium: -0.0352%; Mtb cholesterol medium: -3.167%.
With COc1ccc(-c2cc3nc([C@H](C)NC(=O)C4CC4)nn3cn2)cc1 the screen gave Mtb glucose medium: 0.9298%; Mtb cholesterol medium: 9.774%.
With CC(=O)N1Cc2ccccc2CC1C(=O)Nc1cc(C)ccn1 (centres unmarked) the screen gave Mtb glucose medium: -19.64%; Mtb cholesterol medium: -24.75%.
With O=C(O)C(F)(F)F.O=C(c1cscn1)N1CC[C@]2(C[C@@H](OCCN3CCCC3)CO2)C1 the screen gave Mtb glucose medium: 5.782%; Mtb cholesterol medium: -24.24%.
With [H][C@@]12CN(C(=O)Cc3cccs3)C[C@]1([H])OCCN2Cc1csc(C)n1 the screen gave Mtb glucose medium: 8.557% & 16.6%; Mtb cholesterol medium: -12.25%.
With CN(C)c1ccc(NC(=O)NCc2cccs2)cn1 the screen gave Mtb glucose medium: -9.007%; Mtb cholesterol medium: -17.93%.
With Cc1ncc2c(n1)CN(CC(=O)Nc1ccncc1)CC2 the screen gave Mtb glucose medium: -15.86%; Mtb cholesterol medium: -1.412%.
With CC(C)C1CN(C(=O)c2ccc3nccnc3c2)CCS1 (centres unmarked) the screen gave Mtb glucose medium: 17.53% & 17.4%; Mtb cholesterol medium: 4.539%.
With CCC[C@H]1CN(CCS(C)(=O)=O)C[C@@H]1NC(=O)c1cccnn1 the screen gave Mtb glucose medium: -23.88%; Mtb cholesterol medium: -46.57%.
With Cc1nc(CN2CCCC2c2ccsc2)nc2ccccc12 (centres unmarked) the screen gave Mtb glucose medium: 32.95%; Mtb cholesterol medium: 17.29%.
With CC1(C)CC(=O)c2cnc3nc(N4CCCC4)[nH]c(=O)c3c2C1 the screen gave Mtb glucose medium: -3.866% & -4.947%; Mtb cholesterol medium: -15.96%.
With COCC(=O)N1CCN(C(C)C(=O)NC(C)C)CC1 (centres unmarked) the screen gave Mtb glucose medium: -4.598% & -3.952%; Mtb cholesterol medium: -10.21%.
With O=C(O)C(F)(F)F.[H][C@@]12C[C@H](C(=O)NC3CCC3)[C@@]([H])(CN(CC(C)C)C1)O2 the screen gave Mtb glucose medium: 22.38%; Mtb cholesterol medium: 19.54%.
With CN(CC1=CCCN(Cc2cccc(C#N)c2)C1)C(=O)c1ccco1 the screen gave Mtb glucose medium: 12.12%; Mtb cholesterol medium: 9.368%.
With COCCc1noc(CN2CC(Cc3ccccc3)CC2=O)n1 (centres unmarked) the screen gave Mtb glucose medium: 26.39%; Mtb cholesterol medium: 22.91%.
With O=C(O)CCn1ccc2c(nnc3c(-c4ccc(F)cc4)cnn32)c1=O the screen gave Mtb glucose medium: 0.09612%; Mtb cholesterol medium: 0.5009%.
With Cc1cnn(CC2CCCN2CC(=O)N(C)CCC#N)c1 (centres unmarked) the screen gave Mtb glucose medium: -4.493%; Mtb cholesterol medium: -19.98%.
With COc1ccc(OCCCN2CCOC(Cn3cccn3)C2)cc1 (centres unmarked) the screen gave Mtb glucose medium: -24.89%; Mtb cholesterol medium: -8.856%.
With Cn1nccc1CNC(=O)Nc1cc(C(F)(F)F)c[nH]c1=O the screen gave Mtb glucose medium: -9.817%; Mtb cholesterol medium: -1.446%.
With Cc1cnc(CNC(=O)CCCn2cnc3ccccc3c2=O)cn1 the screen gave Mtb glucose medium: -30.12%; Mtb cholesterol medium: -21.68%.
With CN(CCN1CCCC1=O)CC(c1cccs1)N1CCOCC1 (centres unmarked) the screen gave Mtb glucose medium: 3.025% & -0.4366%; Mtb cholesterol medium: 6.038%.
With Cc1cncnc1C1CCN(C(=O)CN(C)C)CC1 the screen gave Mtb glucose medium: -2.28%; Mtb cholesterol medium: -12.04%.
With CC(C(=O)N1CCC(Nc2cccnn2)CC1)n1ccnc1 (centres unmarked) the screen gave Mtb glucose medium: 34.13%; Mtb cholesterol medium: -0.702%.
With Cc1noc(CN(C)C(=O)CCn2cnc3ccccc32)n1 the screen gave Mtb glucose medium: -35.52%; Mtb cholesterol medium: -24.22%.

3 of the entries, repeated:

| compound | Mtb glucose medium | Mtb cholesterol medium |
|---|---|---|
| `O=C(O)CCn1ccc2c(nnc3c(-c4ccc(F)cc4)cnn32)c1=O` | 0.09612 | 0.5009 |
| `CCSCc1cccc(NCc2cccnc2)c1` | 16.44 | 5.163 |
| `CN(C)c1ccc(NC(=O)NCc2cccs2)cn1` | -9.007 | -17.93 |

Measurements from “University of Dundee, Small-Polar-MMV Screening Library” (2021), ChEMBL document CHEMBL3988442.